The test has as its system L1210 leukemia ip in BDF1 mice, survival T/C. Nature of the test: NCI In Vivo Anticancer Drug Screen. Data for tumor model L1210 Leukemia (intraperitoneal) in B6D2F1 (BDF1) mice. The conditions noted are these: T/C endpoint: mean survival time, higher T/C = longer survival.
The mark [1] stands for this setting: dose: 200.0 mg/kg/injection, schedule: Q01DX001 (ip), vehicle: saline.
[2] abbreviates: dose: 400.0 mg/kg/injection, schedule: Q04DX003 (ip), vehicle: saline.
[3] abbreviates: dose: 400.0 mg/kg/injection, schedule: Q01DX001 (ip), vehicle: saline.
[4] abbreviates: dose: 200.0 mg/kg/injection, schedule: Q04DX002 (ip), vehicle: Klucel (hydroxypropylcellulose) (HPC).
Where [5] appears, read: dose: 400.0 mg/kg/injection, schedule: Q04DX002 (ip), vehicle: Klucel (hydroxypropylcellulose) (HPC).
The mark [6] stands for this setting: dose: 20.0 mg/kg/injection, schedule: Q01DX009 (sc), vehicle: saline.

The list does not hold the whole screen: it is rich in T/C values a quarter to a half above the control, in often repeated tests (any T/C) and in doses without a T/C. Further doses and runs are listed elsewhere. T/C: endpoint of the treated group in % of that of the vehicle group. Some entries give survivors of the animals treated and no T/C: the source holds a T/C of zero for them, seemingly a mark for toxic or unscored doses. Some survivor counts are full or nearly so, which does not show that the dose was tolerated: survival well below the control is almost never listed, so the zero probably covers shortened survival too. Counts of survivors are from the toxicity check (mostly the fifth day) where no day follows; animals may have died later. Schedules are NCI's codes, read here as Q, the interval in days (D) or hours (H), X, the number of doses. Some doses were run more than once; their values stand side by side, smallest first. Some molecules as drawn cover several salts, stereoisomers or complexes of the source; a dose is that of the sample tested. Where survival is the endpoint, the PubChem record calls one and a half times the control and up active, and a quarter to a half above the control has no call in these data; cut-offs in other NCI protocols can differ. Some schedule codes hold Z or #, which are not explained here.

For the compound `C[N+](C)(CCN1C(=O)c2ccc3c4c(ccc(c24)C1=O)C(=O)N(CC[N+](C)(C)Cc1ccccc1)C3=O)Cc1ccccc1`, the survivor count is on record as 6 of 6 (dose: 1.56 mg/kg/injection, schedule: Q01DX001 (ip), vehicle: saline); 1 of 6 (dose: 3.13 mg/kg/injection, schedule: Q01DX001 (ip), vehicle: saline); 2 of 6 (dose: 6.25 mg/kg/injection, schedule: Q01DX001 (ip), vehicle: saline); 1 of 6 (dose: 12.5 mg/kg/injection, schedule: Q01DX001 (ip), vehicle: saline); 0 of 6 (dose: 25.0 mg/kg/injection, schedule: Q01DX001 (ip), vehicle: saline); 0 of 6 (dose: 50.0 mg/kg/injection, schedule: Q01DX001 (ip), vehicle: saline). Besides, the survivor count (dose: 100.0 mg/kg/injection, schedule: Q01DX001 (ip), vehicle: saline) is 1 of 6 and the survivor count under setting [1] was 0 of 6.

With `O=P(O)(CO)CO`, the survivor count under setting [2] is reported as 2 of 6.

`CCOC(=O)P(C(=O)OCC)C(=O)OCC`: the survivor count by setting is: (dose: 150.0 mg/kg/injection, schedule: Q01DX001 (ip), vehicle: saline) 0 of 6; (dose: 300.0 mg/kg/injection, schedule: Q01DX001 (ip), vehicle: saline) 0 of 6.

Turning to `Cc1ccc(NNP(Cl)(c2ccccc2)(c2ccccc2)c2ccccc2)cc1`, the survivor count was 1 of 6 under setting [1] and 0 of 6 under setting [3].

With `COc1ccc(C(c2ccc(Cl)cc2)N2CCNCC2)cc1` (centres undefined), the survivor count reads like this: (dose: 200.0 mg/kg/injection, schedule: Q04DX003 (ip), vehicle: saline with Tween-80) 3 of 6; (dose: 400.0 mg/kg/injection, schedule: Q04DX003 (ip), vehicle: saline with Tween-80) 3 of 6.

For the compound `COc1cc2c(c(Cl)c1N)-c1ccccc1C2`, the survivor count is 3 of 6 (dose: 400.0 mg/kg/injection, schedule: Q01DX001 (ip), vehicle: carboxymethylcellulose (CMC)) and 4 of 6 (dose: 600.0 mg/kg/injection, schedule: Q01DX001 (ip), vehicle: carboxymethylcellulose (CMC)).

With `S=c1[nH]cc2cnccn12`, the survivor count (dose: 400.0 mg/kg/injection, schedule: Q01DX009 (ip), vehicle: saline with Tween-80) is recorded as 0 of 6.

Regarding `O=C(Nc1cc(F)ccc1F)Oc1cccnc1`, the survivor count by setting is: (dose: 150.0 mg/kg/injection, schedule: Q01DX009 (ip), vehicle: Klucel (hydroxypropylcellulose) (HPC)) 6 of 6; (dose: 200.0 mg/kg/injection, schedule: Q01DX009 (ip), vehicle: Klucel (hydroxypropylcellulose) (HPC)) 1 of 3; (dose: 300.0 mg/kg/injection, schedule: Q01DX009 (ip), vehicle: Klucel (hydroxypropylcellulose) (HPC)) 0 of 3 and 0 of 6; (dose: 400.0 mg/kg/injection, schedule: Q01DX009 (ip), vehicle: Klucel (hydroxypropylcellulose) (HPC)) 1 of 3 and 6 of 6.

On to `CCCCOc1c(OCCCC)c(=O)c1=O`, for which the survivor count was 3 of 6 under setting [3] and 0 of 6 (dose: 600.0 mg/kg/injection, schedule: Q01DX001 (ip), vehicle: saline).

For `CS(=O)(=O)N1C(=O)c2ccccc2C1=O`, the survivor count reads like this: (dose: 100.0 mg/kg/injection, schedule: Q04DX002 (ip), vehicle: saline with Tween-80) 1 of 3; (dose: 200.0 mg/kg/injection, schedule: Q04DX002 (ip), vehicle: saline with Tween-80) 1 of 3; (dose: 400.0 mg/kg/injection, schedule: Q04DX002 (ip), vehicle: saline with Tween-80) 0 of 3.

Regarding `COc1ccc2cc[n+](C)cc2c1`, the survivor count is listed as 1 of 6 (dose: 100.0 mg/kg/injection, schedule: Q04DX003 (ip), vehicle: saline); 0 of 6 (dose: 200.0 mg/kg/injection, schedule: Q04DX003 (ip), vehicle: saline); 0 of 6 under setting [2].

Consider `NNC(=O)CNc1cccc(Br)c1`, for which the survivor count is, setting by setting: (dose: 100.0 mg/kg/injection, schedule: Q04DX002 (ip), vehicle: Klucel (hydroxypropylcellulose) (HPC)) 1 of 3; under setting [4], 0 of 3; under setting [5], 0 of 3. The T/C runs as follows: under setting [4], 130 % of control; under setting [5], 131 % of control.

For the compound `O=C(Nc1ccc(C2=NCCN2)cc1)Nc1cccc(NC(=O)Nc2ccc(C3=NCCN3)cc2)c1`, the T/C was 125 % of control (dose: 3.75 mg/kg/injection, schedule: Q#A X Z (ip), vehicle: carboxymethylcellulose (CMC)); 147 % of control (dose: 15.0 mg/kg/injection, schedule: Q01DX Z (ip), vehicle: carboxymethylcellulose (CMC)); 147 % of control (dose: 45.0 mg/kg/injection, schedule: Q03DX Z (ip), vehicle: carboxymethylcellulose (CMC)); 125 % of control (dose: 52.5 mg/kg/injection, schedule: Q07DX Z (ip), vehicle: carboxymethylcellulose (CMC)); 130 % of control (dose: 100.0 mg/kg/injection, schedule: Q01DX001 (ip), vehicle: carboxymethylcellulose (CMC)); 145 % of control (dose: 105.0 mg/kg/injection, schedule: Q07DX Z (ip), vehicle: carboxymethylcellulose (CMC)). In addition, the T/C (dose: 200.0 mg/kg/injection, schedule: Q01DX001 (ip), vehicle: carboxymethylcellulose (CMC)) was 145 % of control.

On to `CCC1(C)CC(=O)NC(=O)C1`, for which the survivor count (dose: 20.0 mg/kg/injection, schedule: Q04DX003 (ip), vehicle: saline with Tween-80) is listed as 5 of 6; the survivor count (dose: 30.0 mg/kg/injection, schedule: Q04DX003 (ip), vehicle: saline) is recorded as 0 of 4; the survivor count (dose: 60.0 mg/kg/injection, schedule: Q04DX003 (ip), vehicle: saline) is recorded as 0 of 4.

In the case of `COc1cc(NS(C)(=O)=O)ccc1Nc1c2ccccc2nc2c(C)cccc12`, the T/C is 139 % of control (dose: 1.25 mg/kg/injection, schedule: Q01DX009 (ip), vehicle: saline); 147 % of control (dose: 2.5 mg/kg/injection, schedule: Q01DX009 (ip), vehicle: Klucel (hydroxypropylcellulose) (HPC)); 133 % of control (dose: 2.5 mg/kg/injection, schedule: Q01DX009 (ip), vehicle: saline); 130 % of control (dose: 2.5 mg/kg/injection, schedule: Q01DX009 (sc), vehicle: saline); 127 % of control (dose: 2.5 mg/kg/injection, schedule: Q04DX003 (ip), vehicle: saline); 129 % of control (dose: 5.0 mg/kg/injection, schedule: Q01DX009 (ip), vehicle: saline). Further, the T/C (dose: 5.0 mg/kg/injection, schedule: Q01DX009 (sc), vehicle: saline) is 127 and 145 % of control; the T/C (dose: 5.0 mg/kg/injection, schedule: Q04DX003 (ip), vehicle: saline, evaluated on day 30) was 134 % of control; the T/C (dose: 5.0 mg/kg/injection, schedule: Q04DX003 (ip), vehicle: saline, evaluated on day 60) is 139 % of control; the T/C (dose: 10.0 mg/kg/injection, schedule: Q01DX009 (sc), vehicle: saline) is 137 % of control; the T/C under setting [6] was 137 % of control. The survivor count (dose: 20.0 mg/kg/injection, schedule: Q01DX009 (ip), vehicle: Klucel (hydroxypropylcellulose) (HPC)) is reported as 6 of 6; the survivor count under setting [6] is reported as 10 of 10; the survivor count (dose: 40.0 mg/kg/injection, schedule: Q04DX003 (ip), vehicle: saline) is on record as 3 of 6; the survivor count (dose: 80.0 mg/kg/injection, schedule: Q04DX003 (ip), vehicle: saline) is 1 of 6.

For the compound `O=C(Cl)c1ccc(OC(Cl)(Cl)Cl)cc1`, the survivor count (dose: 100.0 mg/kg/injection, schedule: Q01DX009 (ip), vehicle: Klucel (hydroxypropylcellulose) (HPC)) is 6 of 6.

As for `O=C1C(Br)=CC(=C2C=C(Br)C(=O)C(Br)=C2)C=C1Br`, where the note is “dose: 400.0 mg/kg/injection, schedule: Q04DX003 (ip), vehicle: Klucel (hydroxypropylcellulose) (HPC)”, the survivor count is reported as 5 of 6.

Turning to `O=NN(CCCl)C(=O)NC1CCC(Br)CC1` (centres undefined), the T/C runs as follows: (dose: 15.0 mg/kg/injection, schedule: Q01DX001 (ip), vehicle: saline with Tween-80) 133 % of control; (dose: 168.0 mg/kg/injection, schedule: Q01DX001 (ip), vehicle: saline with Tween-80) 128 % of control.
